The values below come from the supplement of paper PMC10849652.

By UniProt entry, the sequences of proteins in these tests, tags left out. Where a name states a change or a piece, a line headed by the entry shows the natural chain unless it says otherwise.
UniProt Q16864, whole entry, looked up: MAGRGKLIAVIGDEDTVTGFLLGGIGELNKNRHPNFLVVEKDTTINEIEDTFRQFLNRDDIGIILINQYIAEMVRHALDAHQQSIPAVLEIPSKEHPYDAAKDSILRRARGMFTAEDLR
UniProt O43681: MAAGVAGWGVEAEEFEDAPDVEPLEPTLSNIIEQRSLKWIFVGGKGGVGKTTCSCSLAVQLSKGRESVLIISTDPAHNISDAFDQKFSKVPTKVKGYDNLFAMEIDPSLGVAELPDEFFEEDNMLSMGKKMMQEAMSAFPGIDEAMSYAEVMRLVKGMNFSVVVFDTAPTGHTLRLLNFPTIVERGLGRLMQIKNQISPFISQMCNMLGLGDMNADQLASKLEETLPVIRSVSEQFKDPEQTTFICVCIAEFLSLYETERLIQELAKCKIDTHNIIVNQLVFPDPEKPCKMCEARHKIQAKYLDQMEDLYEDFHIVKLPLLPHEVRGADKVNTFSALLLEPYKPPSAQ
UniProt P18846: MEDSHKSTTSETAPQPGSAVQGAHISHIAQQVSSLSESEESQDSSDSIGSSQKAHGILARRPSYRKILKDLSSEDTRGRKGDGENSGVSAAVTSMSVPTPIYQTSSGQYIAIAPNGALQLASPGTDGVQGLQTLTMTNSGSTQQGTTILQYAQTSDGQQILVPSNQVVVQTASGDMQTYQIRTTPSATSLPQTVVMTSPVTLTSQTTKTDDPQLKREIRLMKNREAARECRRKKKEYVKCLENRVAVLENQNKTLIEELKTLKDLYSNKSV
UniProt Q9NWX5: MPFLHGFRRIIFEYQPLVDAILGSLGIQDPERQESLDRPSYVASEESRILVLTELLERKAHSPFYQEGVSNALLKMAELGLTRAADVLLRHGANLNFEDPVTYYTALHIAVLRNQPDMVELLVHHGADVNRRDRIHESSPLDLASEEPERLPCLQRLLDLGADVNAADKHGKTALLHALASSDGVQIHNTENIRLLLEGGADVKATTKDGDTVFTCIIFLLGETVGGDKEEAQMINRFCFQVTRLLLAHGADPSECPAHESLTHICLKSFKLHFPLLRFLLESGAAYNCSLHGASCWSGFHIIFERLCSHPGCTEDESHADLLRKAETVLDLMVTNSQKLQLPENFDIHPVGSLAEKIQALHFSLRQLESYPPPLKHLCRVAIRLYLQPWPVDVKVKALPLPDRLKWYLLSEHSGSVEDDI
UniProt Q9Y294, whole entry, looked up: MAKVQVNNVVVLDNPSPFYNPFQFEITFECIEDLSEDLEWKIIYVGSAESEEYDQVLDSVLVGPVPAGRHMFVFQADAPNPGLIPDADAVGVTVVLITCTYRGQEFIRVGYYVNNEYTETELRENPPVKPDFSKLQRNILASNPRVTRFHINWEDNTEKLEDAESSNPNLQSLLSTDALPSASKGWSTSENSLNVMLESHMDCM
UniProt Q93084: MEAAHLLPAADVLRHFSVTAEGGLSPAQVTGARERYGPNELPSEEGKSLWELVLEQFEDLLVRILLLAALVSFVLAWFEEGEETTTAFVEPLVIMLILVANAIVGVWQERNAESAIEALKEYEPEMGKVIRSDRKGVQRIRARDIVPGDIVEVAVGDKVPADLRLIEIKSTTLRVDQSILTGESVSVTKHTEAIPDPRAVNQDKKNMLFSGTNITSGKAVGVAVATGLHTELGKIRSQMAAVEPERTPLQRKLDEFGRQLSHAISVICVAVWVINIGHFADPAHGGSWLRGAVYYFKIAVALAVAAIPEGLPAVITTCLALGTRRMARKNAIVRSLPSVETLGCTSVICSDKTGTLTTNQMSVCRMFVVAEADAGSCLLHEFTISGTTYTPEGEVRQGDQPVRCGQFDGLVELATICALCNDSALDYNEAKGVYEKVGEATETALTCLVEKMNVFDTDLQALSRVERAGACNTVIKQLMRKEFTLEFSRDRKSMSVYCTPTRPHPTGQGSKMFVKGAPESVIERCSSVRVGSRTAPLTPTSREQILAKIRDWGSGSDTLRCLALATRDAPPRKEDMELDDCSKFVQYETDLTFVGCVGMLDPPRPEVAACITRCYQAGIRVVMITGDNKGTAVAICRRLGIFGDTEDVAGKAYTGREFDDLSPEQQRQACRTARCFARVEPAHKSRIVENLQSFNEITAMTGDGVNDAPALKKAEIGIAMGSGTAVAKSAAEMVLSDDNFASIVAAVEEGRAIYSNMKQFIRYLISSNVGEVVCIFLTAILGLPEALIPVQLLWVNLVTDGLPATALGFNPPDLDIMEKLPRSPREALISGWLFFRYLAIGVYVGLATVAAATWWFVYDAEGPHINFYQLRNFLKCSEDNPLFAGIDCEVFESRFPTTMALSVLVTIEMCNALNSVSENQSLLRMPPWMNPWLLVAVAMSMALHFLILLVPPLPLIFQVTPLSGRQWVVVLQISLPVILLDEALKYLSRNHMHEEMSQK
UniProt Q9H1I8: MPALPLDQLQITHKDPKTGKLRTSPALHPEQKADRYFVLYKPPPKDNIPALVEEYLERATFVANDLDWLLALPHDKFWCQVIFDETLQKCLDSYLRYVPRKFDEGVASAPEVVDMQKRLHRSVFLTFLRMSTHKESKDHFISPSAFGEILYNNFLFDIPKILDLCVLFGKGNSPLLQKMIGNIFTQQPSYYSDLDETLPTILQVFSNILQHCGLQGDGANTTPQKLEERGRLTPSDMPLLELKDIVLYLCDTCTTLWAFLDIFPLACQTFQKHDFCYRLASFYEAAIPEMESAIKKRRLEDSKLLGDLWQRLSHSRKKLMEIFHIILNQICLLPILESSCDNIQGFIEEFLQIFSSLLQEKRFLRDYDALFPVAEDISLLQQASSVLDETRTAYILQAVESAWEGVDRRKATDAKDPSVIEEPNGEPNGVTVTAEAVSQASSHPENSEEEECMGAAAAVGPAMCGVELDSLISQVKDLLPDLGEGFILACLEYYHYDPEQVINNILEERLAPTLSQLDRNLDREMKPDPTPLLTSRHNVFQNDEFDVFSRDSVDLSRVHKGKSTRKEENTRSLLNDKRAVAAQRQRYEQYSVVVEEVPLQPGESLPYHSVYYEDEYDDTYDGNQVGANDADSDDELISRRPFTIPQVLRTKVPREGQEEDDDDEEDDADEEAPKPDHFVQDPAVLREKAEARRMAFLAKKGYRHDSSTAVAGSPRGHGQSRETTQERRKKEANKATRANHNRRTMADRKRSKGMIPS
UniProt P08243: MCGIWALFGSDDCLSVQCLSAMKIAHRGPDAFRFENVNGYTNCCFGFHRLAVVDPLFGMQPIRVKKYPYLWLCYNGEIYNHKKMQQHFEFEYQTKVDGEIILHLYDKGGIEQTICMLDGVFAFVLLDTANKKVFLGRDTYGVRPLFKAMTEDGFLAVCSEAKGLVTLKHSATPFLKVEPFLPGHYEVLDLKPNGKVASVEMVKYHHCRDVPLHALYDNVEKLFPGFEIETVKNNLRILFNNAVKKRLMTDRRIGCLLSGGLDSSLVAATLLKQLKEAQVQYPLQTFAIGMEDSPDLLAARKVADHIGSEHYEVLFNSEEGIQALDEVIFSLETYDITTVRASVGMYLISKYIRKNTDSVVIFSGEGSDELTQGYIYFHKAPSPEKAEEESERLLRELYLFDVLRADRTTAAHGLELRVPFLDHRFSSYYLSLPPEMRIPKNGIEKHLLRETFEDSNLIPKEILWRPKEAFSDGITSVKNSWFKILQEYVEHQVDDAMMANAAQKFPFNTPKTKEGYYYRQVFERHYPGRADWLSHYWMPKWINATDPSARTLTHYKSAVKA
UniProt O43861: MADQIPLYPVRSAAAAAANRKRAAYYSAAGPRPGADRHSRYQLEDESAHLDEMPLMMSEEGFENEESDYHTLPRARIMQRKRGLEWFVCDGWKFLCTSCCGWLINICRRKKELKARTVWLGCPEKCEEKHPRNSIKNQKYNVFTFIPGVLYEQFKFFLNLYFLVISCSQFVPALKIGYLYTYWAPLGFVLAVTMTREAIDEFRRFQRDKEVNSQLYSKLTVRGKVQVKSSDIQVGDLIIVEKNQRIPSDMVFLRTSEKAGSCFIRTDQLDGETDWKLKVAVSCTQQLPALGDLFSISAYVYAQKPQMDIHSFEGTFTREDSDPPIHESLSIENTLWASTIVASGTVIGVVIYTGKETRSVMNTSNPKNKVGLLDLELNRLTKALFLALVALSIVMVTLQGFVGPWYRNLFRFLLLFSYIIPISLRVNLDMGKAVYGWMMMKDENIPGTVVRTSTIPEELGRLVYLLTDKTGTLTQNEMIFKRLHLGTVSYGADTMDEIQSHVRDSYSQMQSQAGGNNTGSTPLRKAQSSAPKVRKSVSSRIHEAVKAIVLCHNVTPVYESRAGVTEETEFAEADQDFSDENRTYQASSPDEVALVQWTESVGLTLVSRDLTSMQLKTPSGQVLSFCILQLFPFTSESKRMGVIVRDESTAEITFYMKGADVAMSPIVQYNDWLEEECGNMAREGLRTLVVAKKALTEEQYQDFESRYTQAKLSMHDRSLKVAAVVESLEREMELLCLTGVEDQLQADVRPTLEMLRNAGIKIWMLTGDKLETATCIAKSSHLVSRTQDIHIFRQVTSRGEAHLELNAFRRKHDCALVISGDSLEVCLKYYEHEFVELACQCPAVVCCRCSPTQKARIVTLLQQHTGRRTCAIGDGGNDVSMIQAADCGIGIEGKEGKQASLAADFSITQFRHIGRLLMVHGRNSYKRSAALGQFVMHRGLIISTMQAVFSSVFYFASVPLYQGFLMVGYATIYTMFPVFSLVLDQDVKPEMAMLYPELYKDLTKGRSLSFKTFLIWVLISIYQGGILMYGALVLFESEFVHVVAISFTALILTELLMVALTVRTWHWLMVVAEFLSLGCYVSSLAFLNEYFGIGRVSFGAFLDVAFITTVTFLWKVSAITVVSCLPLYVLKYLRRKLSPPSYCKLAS
UniProt P30049: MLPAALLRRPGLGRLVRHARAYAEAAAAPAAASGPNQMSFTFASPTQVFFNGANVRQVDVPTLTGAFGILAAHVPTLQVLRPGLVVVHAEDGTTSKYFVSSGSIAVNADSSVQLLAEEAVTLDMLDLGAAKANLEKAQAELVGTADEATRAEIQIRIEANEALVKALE
UniProt Q9Y4P1: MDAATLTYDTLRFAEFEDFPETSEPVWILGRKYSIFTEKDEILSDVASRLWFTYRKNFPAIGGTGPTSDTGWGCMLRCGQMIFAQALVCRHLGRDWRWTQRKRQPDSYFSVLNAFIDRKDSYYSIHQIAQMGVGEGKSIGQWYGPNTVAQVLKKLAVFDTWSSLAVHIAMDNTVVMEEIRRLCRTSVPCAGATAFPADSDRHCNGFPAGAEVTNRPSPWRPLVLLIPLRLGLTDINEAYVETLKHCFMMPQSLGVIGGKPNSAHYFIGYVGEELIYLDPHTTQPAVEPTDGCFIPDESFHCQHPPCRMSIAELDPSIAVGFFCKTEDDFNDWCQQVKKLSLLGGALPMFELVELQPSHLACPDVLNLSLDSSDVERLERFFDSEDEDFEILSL
UniProt Q9UII2: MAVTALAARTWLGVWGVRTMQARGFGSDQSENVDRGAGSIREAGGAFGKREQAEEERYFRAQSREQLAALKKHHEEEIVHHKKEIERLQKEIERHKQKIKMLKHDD
UniProt P15313, whole entry, looked up: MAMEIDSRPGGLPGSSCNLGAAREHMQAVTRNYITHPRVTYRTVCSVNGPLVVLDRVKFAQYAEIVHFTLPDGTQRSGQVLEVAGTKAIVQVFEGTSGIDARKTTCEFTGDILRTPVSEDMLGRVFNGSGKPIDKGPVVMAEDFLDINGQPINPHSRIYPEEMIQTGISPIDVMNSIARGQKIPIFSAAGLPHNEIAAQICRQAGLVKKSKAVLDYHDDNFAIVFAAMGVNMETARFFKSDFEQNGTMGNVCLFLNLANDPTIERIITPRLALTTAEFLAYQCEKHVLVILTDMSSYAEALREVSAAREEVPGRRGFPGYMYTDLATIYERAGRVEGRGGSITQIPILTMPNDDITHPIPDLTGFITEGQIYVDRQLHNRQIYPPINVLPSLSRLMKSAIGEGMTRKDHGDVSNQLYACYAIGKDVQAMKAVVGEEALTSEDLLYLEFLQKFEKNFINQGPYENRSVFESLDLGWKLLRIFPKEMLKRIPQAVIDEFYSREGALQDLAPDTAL
UniProt P56378: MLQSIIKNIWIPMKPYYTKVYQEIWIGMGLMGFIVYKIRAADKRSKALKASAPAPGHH
UniProt Q9Y679: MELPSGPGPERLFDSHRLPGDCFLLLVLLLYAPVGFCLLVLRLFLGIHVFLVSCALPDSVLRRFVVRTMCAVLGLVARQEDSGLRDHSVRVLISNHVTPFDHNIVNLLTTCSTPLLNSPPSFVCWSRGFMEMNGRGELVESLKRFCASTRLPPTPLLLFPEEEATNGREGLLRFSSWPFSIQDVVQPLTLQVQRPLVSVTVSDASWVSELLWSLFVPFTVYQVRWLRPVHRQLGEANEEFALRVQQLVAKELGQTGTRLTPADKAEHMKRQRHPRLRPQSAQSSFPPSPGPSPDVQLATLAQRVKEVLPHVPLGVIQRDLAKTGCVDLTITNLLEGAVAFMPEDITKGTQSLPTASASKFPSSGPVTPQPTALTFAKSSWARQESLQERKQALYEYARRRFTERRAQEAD
UniProt O00244: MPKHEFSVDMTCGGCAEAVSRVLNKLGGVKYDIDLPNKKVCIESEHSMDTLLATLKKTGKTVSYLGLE

This is one part of the list.

Compound in one assay: Cn1cc(-c2ccc3c(c2)CCN3C(=O)Cc2cccc(C(F)(F)F)c2)c2c(N)ncnc21
The assay can be described thus: log2 fold change, soluble protein after heating vs DMSO (PISA); higher = thermal stabilisation; K562 lysate, 10 uM; active = over 0.2 and 3.5 SD of the protein, either way, in both replicates (recomputed). In a few lines:
(§1)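 Dounce homogenisation of K562 pellets in PBS pH 7.4 with 1 mM MgCl2 produced a crude extract, used at 1 mg/mL protein. Exposure to 10 μM compound lasted 30 min, and aliquots were then heated for 3 min across 48°C-58°C, pooled and brought to 0.5% NP-40 at 4°C. The supernatant after 21,000xg for 90 min was quantified by TMTpro 16plex LC-MS/MS with channel sums equalised. Duplicate values are given as log-two fold change in thermal stability relative to solvent controls.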
On to ATP13A3 (UniProt Q9H7F0), for which the log2 fold change was inactive: 0.04.
Same read-out and setting: as for ATP6V1F isoform 2 (UniProt Q16864), the figure is inactive: 0.054; as for ATP6V1E1 (UniProt P36543), inactive: -0.026.
Consider ASNA1 (UniProt O43681), for which the log2 fold change was inactive: 0.015.
In the case of ATP11B (UniProt Q9Y2G3), the log2 fold change is inactive: -0.007.
Consider ATR (UniProt Q13535), for which the log2 fold change is inactive: 0.001.
Same read-out and setting: as for ATF1 (UniProt P18846), the figure is inactive: -0.048.
Same read-out and setting: as for ATP23 (UniProt Q9Y6H3), the figure is inactive: -0.032.
Still for that read-out and setting: as for ATP6V0A2 (UniProt Q9Y487), the figure is inactive: 0.003.
Consider ASB6 (UniProt Q9NWX5), for which the log2 fold change was inactive: -0.025.

Compound in the next assay: Cn1cc(CNCC2CCN(c3ncc(C(=O)NO)cn3)CC2)c2ccccc21 [quisinostat]
The assay is described as above. The essentials:
as §1
For the target ASF1A (UniProt Q9Y294), the log2 fold change is inactive: -0.053.
On the same count and under the same terms, as for ATP2B1 isoform 1 (UniProt P20020), the figure is inactive: -0.003.
Turning to ASF1B (UniProt Q9NVP2), the log2 fold change was inactive: -0.122.
In the case of ATP2A3 isoform 2 (UniProt Q93084), the log2 fold change is inactive: -0.058.
Still for that read-out and setting: as for ATL2 (UniProt Q8NHH9), the figure is inactive: 0.084; as for ASCC2 (UniProt Q9H1I8), inactive: -0.06.
Still for that read-out and setting: next, ASNS (UniProt P08243): inactive: 0.027.
Still for that read-out and setting: as for ATP9B (UniProt O43861), the figure is inactive: 0.009.
Regarding ASS1 (UniProt P00966), the log2 fold change is inactive: 0.022.
Still for that read-out and setting: next, ATP5F1D (UniProt P30049): inactive: -0.085; ATG4B (UniProt Q9Y4P1): inactive: -0.055; ATG2A isoform 3 (UniProt Q2TAZ0): inactive: -0.047.
On the same count and under the same terms, as for ATP5IF1 (UniProt Q9UII2), the figure is inactive: 0.009.
For ATP6V1B1 (UniProt P15313), the log2 fold change was inactive: -0.029.
For ATP6V1A (UniProt P38606), the log2 fold change is inactive: 0.041.
As for ATE1 isoform 2 (UniProt O95260), the log2 fold change was inactive: -0.014.
The same measure, in the same setting: next, ATP5MF-PTCD1 (UniProt G3V325): inactive: -0.003; ATP5MPL (UniProt P56378): inactive: -0.061; ATP5PB (UniProt P24539): inactive: 0.036.
The same measure, in the same setting: next, AUP1 (UniProt Q9Y679): inactive: 0.245; ATXN10 (UniProt Q9UBB4): inactive: 0.007; ASH2L (UniProt Q9UBL3): inactive: -0.011.
On to ATOX1 (UniProt O00244), for which the log2 fold change is inactive: -0.051.
Regarding ATP13A3 (UniProt Q9H7F0), the log2 fold change is inactive: -0.05.
The same measure, in the same setting: next, ATP6V1F isoform 2 (UniProt Q16864): inactive: -0.066.
Consider ATP6V1E1 (UniProt P36543), for which the log2 fold change is inactive: 0.009.
Consider ASNA1 (UniProt O43681), for which the log2 fold change is inactive: 0.011.
Still for that read-out and setting: as for ATP11B (UniProt Q9Y2G3), the figure is inactive: 0.021; as for ATR (UniProt Q13535), inactive: -0.219.
For ATF1 (UniProt P18846), the log2 fold change is inactive: -0.042.
Regarding ATP23 (UniProt Q9Y6H3), the log2 fold change is inactive: 0.171.
Still for that read-out and setting: as for ATP6V0A2 (UniProt Q9Y487), the figure is inactive: -0.065.
With ASB6 (UniProt Q9NWX5), the log2 fold change was inactive: -0.002.
